This assay addresses Xenopus HA-NASP Δ525–534 (Xenopus). The assay can be described thus: co-IP; HA-NASP from wheat germ extract pre-immobilised on anti-HA magnetic beads, incubated with 30 μL 25% NPE (Xenopus nucleoplasmic egg extract) for 1 hour at 4 °C, washed with 2xELB-sucrose; immunoblot. (In western blotting, separated proteins are transferred to a membrane and probed.)

These are yes or no findings as the source states them, for the method shown. Binding seen in cells or lysates may run through a third protein. Binding calls can cover weak binding; strength is not graded here.

B1: Xenopus DONSON (endogenous) (protein, UniProt Q5U4U4 1-579)
chain: MAELLPGYSPSFKKPSEILRLSRRRSRSEASKTGLSPFSPGDVIKRVPGLRPFSPGPNKGAGVKRRNPFASLENTVCSPVKRRAETVAEYGAASLEPRALSAVRPSCLGQDSPEPPQFNSVEDVIWGDPLAADADPLVKTESPEKPAPACEIPKGSVTFPADWSLKTRLLFTSSHSFSWADHLKAQEEAQGLVMQCRATAVNLPHSIQEPKLSTDLRCAFQQSLVHWIHPSLPWVQLFPRIGVDRKMAGKNTPWSQDESLQQVLMSEWALSFTSLYNLLKAKLCPYFYVCTYQFTVLFRAAGLAGSDVITAVMSPTTRGLREAMKNEGITFSQPLVEDDTGKKQKKPEAASQGDINPEKENGTAEADEASDESDEDESFSWLEEMGVEDKIKKPDSISIKLRKEKNEVKLDHKPESVVLVKGTNTFTLLNFLINCKSIVAAAGLQAGLPPTLLSPVAFRGATMHALKARSVNVKTRVNSGYKDQFSLEITGPIMPHSLHSLTMLLQSAQRGSFSAGLYTHEPTAVFNTPIHSQAVKEISADLQNCGLHPCTVEQLTQVNELGKLSLRHLEMTDYRYTWK
As for B1, the binding entry was “binds”.
